From ChEMBL document CHEMBL3988442, “University of Dundee, Small-Polar-MMV Screening Library” (2021).

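Whole-parasite assay of Trypanosoma brucei over 72 hours; the read-out is not stated. Compounds at 30 µM. Higher reads as stronger inhibition (inferred: compounds with an IC50 in retests scored well above the rest). Values scatter widely below zero; nearly all retest evidence comes from the higher of the two concentrations used. About 64,000 compounds were tested under these conditions; 1.5% (about 940) showed 50% or more at least once.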

Results are given as percent effect.
The controls that fix the scale are not given in the record; negative values are as filed.
This is an unselected part of the compounds tested.

Cc1ncsc1C(=O)NC1CCN(Cc2cccc3c2OCCO3)CC1 gave -10.39%. Result for CC(C)c1cc(N2CCC3(CCN(C)C3)C2)ncn1 (stereo unspecified) was -25.97%. With Cc1nc(C2CCCN2C(=O)CN(C)Cc2ccccc2)no1 (stereo unspecified) the screen gave -28.4%. With Cc1cccc(CC(=O)N2CCOCC2c2c(C)n[nH]c2C)c1 (stereo unspecified) the screen gave -22.51%. Result for CCC(C)(NCc1nnc(C(C)(C)C)o1)c1nccs1 (stereo unspecified) was -43.94%.

With CN(C)C(=O)CN1CC[C@]2(CN(CC3CC3)C[C@H]2c2ccccc2)C1=O.O=C(O)C(F)(F)F the screen gave -12.66%. CCOc1ccc(C(=O)Nc2c(C)nc3ccccn3c2=O)cc1 read -9.147%. CCNC(=O)NC1CCC(Oc2ccccc2C#N)CC1 (stereo unspecified) gave 74.2%. Result for c1cnc(N2CCCC(c3cncc(-n4ccnc4)n3)C2)nc1 (stereo unspecified) was -7.916%. With COc1ccc(F)cc1C(C(=O)O)N1CCCN(C2CCCC2)CC1 (stereo unspecified) the screen gave 12.55%.

For COCCN(Cc1coc(-c2cccc(Cl)c2)n1)C1CC1 the result was -55.74%. CCOCCN1CCN(CCCc2nnnn2-c2ccccc2)CC1 gave -58.9%. With CC(C)c1cc(CSCCC(=O)O)no1 the screen gave 3.841%. Cc1nc(C)n(CC2CCCN2CCc2cccs2)n1 (stereo unspecified) gave -12.11%. CCCn1nccc1-c1cc(C2CCN(C(C)=O)CC2)ccn1 gave -41.85%.

CC(C)NC(=O)CS(=O)(=O)Cc1coc(-c2ccc(F)cc2)n1 read -8.538%. O=C(NCCc1cccs1)N1CCCC1CCCO (stereo unspecified) gave -21.07%. O=C(NCC1CC1)C1=NOC2(CCN(S(=O)(=O)c3cccs3)C2)C1 (stereo unspecified) gave 9.312%. For COC(=O)Cn1c(=O)nc2n1C(=O)N(c1ccc(Br)cc1)C2 the result was 7.26%. Result for COc1ccnc(N2CCN(C(=O)CN3CCCC3=O)CC2)n1 was 15.64%.

CO[C@H]1CN(C(=O)c2nc(-c3ccccc3)[nH]c2C)CC[C@H]1N read -27.16%. CNc1ncc(C(=O)N2CCOC(C(=O)NC3CCCC3)C2)cn1 (stereo unspecified) read -14.68%. Result for O=C(Cn1c(=O)oc2ccccc21)N1Cc2cnn(CCO)c2C1 was -6.939%. For O=C(NCCc1c[nH]cn1)c1ccc2c(c1)C(=O)N(C1CC1)C2=O the result was -30.91%. For O=C(O)C(c1ccc2[nH]ccc2c1)N1CCN(c2cnccn2)CC1 (stereo unspecified) the result was -3.767%.

For CC(C)N(C)C(=O)C1CSCN1S(=O)(=O)c1ccccc1F (stereo unspecified) the result was 13.01%. Result for Cc1nc(NCCc2noc(C3CCCO3)n2)c2sccc2n1 (stereo unspecified) was 8.245%. Result for CCSc1ccc(C(=O)N2CC[C@](C)(O)[C@H](C)C2)s1 was 6.405%. CCCS(=O)(=O)N1CCC(NC(=O)c2cc3ccccc3s2)CC1 read 22.79%. With Cc1nnsc1C(=O)N1CCCC(c2nccn2Cc2cscn2)C1 (stereo unspecified) the screen gave -26.21%.

Result for CCc1nn(C)c(Cl)c1CN1CCCC2(CC1)CN(C)C(=O)O2 (stereo unspecified) was -28.76%. With CCOC(C)c1nccn1Cc1cc(C)on1 (stereo unspecified) the screen gave -8.369%. COc1ccc(C(=O)C2CCCN(c3nccc(N)n3)C2)c(C)c1 (stereo unspecified) gave 19.6%. Result for O=C(NCCN1CCCCC1)c1nc2ccccc2c(=O)[nH]1 was -20.18%. For O=C(CN1CCCC(Cn2cncn2)C1)NCc1ccco1 (stereo unspecified) the result was -36.16%.

Once more, the final 3:

| compound | percent effect |
|---|---|
| `COc1ccc(C(=O)C2CCCN(c3nccc(N)n3)C2)c(C)c1` (stereo unspecified) | 19.6% |
| `O=C(NCCN1CCCCC1)c1nc2ccccc2c(=O)[nH]1` | -20.18% |
| `O=C(CN1CCCC(Cn2cncn2)C1)NCc1ccco1` (stereo unspecified) | -36.16% |